# From PubChem BioAssay (NCATS)
# Some of the results follow. These are further read-outs of the screen, such as a control signal, another cell line or another target. No call is given for them. Most of these compounds were active or inconclusive in the main read-out, so they are no random draw. Potencies come from curve fits of mixed quality, noted in brackets.
# Test: Validation of Assay for Modulators of Lamin A Splicing (AID 1459)
# Details: Lamin A splicing dual RFP/GFP fluorescence reporter, ratio; measured here: GFP channel
# From the text: Hutchinson-Gilford Progeria Syndrome (HGPS) is a pediatric premature aging disease caused by a spontaneous mutation in the lamin A/C (LMNA) gene. The mutation activates a cryptic splice site in the LMNA pre-mRNA which results in production of a pre-lamin A protein that cannot be processed properly. The mutant protein accumulates in the nucleus and negatively affects numerous cellular functions. Correction of the splicing defect in HGPS patient cells using a targeted oligonucleotide (exo11) leads to reversal of the cellular disease phenotypes. To identify small molecule modulators of aberrant LMNA splicing, a homogenous assay was constructed in HeLa cells that used a GFP containing minigene to report on correction of aberrant splicing in lamin A and a RFP (DsRed2) to report on cell viability, uniformity and nonspecific effects on the assay signal. This assay was adapted to laser-scanning microplate cytometry (Acumen, TTP Labtech) where miniaturization of the assay to a 1,536-well plate format was possible.
# Bowen, W. P.; Wylie, P. G. Application of Laser-Scanning Fluorescence Microplate Cytometry in High Content Screening. Assay Drug Dev Technol 2006;4:209-221.
# Scaffidi P, Misteli T. Reversal of the cellular phenotype in the premature aging disease Hutchinson-Gilford progeria syndrome. Nat. Med. 2005;11:440-445.
# NCGC Assay Protocol Summary:
# Reagents/Controls: Stable clones expressing DsRed2 and lamin A-EGFP were generated by Cell and Molecular Technologies in S3 HeLa cells.
# HeLa cells were prepared for the assay when they were 70-90% confluent. The cells were counted and resuspended in Opti-MEM I (no phenol red; Gibco), 2% FBS, 1% penicillin/ streptomycin (Gibco) at concentration of 120 cells/uL concentration. The suspension was passed through a Falcon basket filter with pore size 40um (Beckton Dickson).
# Control titrations: column […] 1536-well plate contained a sixteen point titration (1:2 dilutions) in duplicate of ancitabine (Sigma: A8598) beginning at 40 uM final concentration. Column 2 contained a sixteen point titration (1:2 dilutions) of cycloheximide beginning at 1.4 mM final concentration. Column 3 contained ancitabine at 40 uM and column 4 contained was the vehicle control (0.5% DMSO final concentration).
# 5 uL of HeLa cells were plated in Aurora LoBase black clear bottom (cyclic-olefin polymer) 1536-well plates at a final density of 600 cells/well. Controls and library compounds were added with a 1536-well pin array using the Kalypsys pin-tool. The plates were then incubated for 48 hrs in a cell-culture incubator (37 °C; 5% CO2, 98% humidity). Following incubation the plates were read on the Acumen Explorer using the 488 nm laser. Data was collected on objects between 10 and 100 um in size. Cell objects were defined by a 15 um width x 10 um depth filter. The ratio of the total object intensity in PMT1 (500-530 nm emission; GFP) over PMT3 (575-640 nm emission; RFP) was calculated for analysis.
# Keywords: NIH Roadmap, MLSCN, MLI, MLSMR, qHTS, NCGC, lamin A, Progeria, RNA splicing.
row,SMILES,AC50
1,c1cnc(N2CCN(Cc3ccc4c(c3)OCO4)CC2)nc1,"25.1 µM [falling, single point]"
2,O=C(c1ccc(OCCN2CCCCC2)cc1)c1c(-c2ccc(O)cc2)sc2cc(O)ccc12,"20 µM [falling, single point]"
3,O=Nc1ccc2oc(=O)ccc2c1,"35.5 µM [falling, single point]"
4,NC(=NCc1ccc(Cl)c(Cl)c1)NC(=O)c1nc(Cl)c(N)nc1N,"17.8 µM [falling, single point]"
5,S=C(Nc1ccccc1)Nc1nccs1,"3.98 µM [falling, full curve]"
6,COC(=O)[C@@H]1[C@H]2C[C@H]3c4[nH]c5ccccc5c4CCN3C[C@@H]2CC[C@@H]1O,"0.00178 µM [rising, full curve, poor fit]"
7,N=C(N)SCCc1cnc[nH]1,"8.91 µM [rising, partial curve, poor fit]"
8,Clc1ccccc1C(c1ccccc1)(c1ccccc1)n1ccnc1,"14.1 µM [rising, partial curve]"
9,C[C@@]1(C2CCCC2)Cc2cc(OCC(=O)O)c(Cl)c(Cl)c2C1=O,"35.5 µM [rising, single point]"
10,O=c1[nH]c2cc(Cl)c(Cl)cc2[nH]c1=O,"3.55 µM [rising, full curve, poor fit]"
11,CCCCCCCCCCCCC/C=C/[C@@H](O)[C@@H](N)CO,"25.1 µM [falling, single point]"
12,CN1CCN(CC/C=C2/c3ccccc3Sc3ccc(S(=O)(=O)N(C)C)cc32)CC1,"12.6 µM [falling, single point]"
13,CN1CCN2c3ccccc3Cc3ccccc3C2C1 (stereo unspecified),"14.1 µM [rising, single point]"
14,CCN(CC)C(=S)SSC(=S)N(CC)CC,"0.158 µM [falling, full curve]"
15,CN1CCc2c(cc(O)c(O)c2Cl)C(c2cccc(Cl)c2)C1 (stereo unspecified),"35.5 µM [falling, single point]"
16,Nc1ncn([C@@H]2O[C@H](CO)[C@@H](O)[C@H]2O)c(=O)n1,"7.94 µM [falling, partial curve]"
17,CC(C)NC[C@H](O)c1ccc(O)c(O)c1,"35.5 µM [falling, single point]"
18,CC(C)C[C@H](N)CSSC[C@@H](N)CC(C)C,"31.6 µM [falling, single point]"
19,CNC(=O)[C@H]1O[C@@H](n2cnc3c(N)ncnc32)[C@H](O)[C@H]1O,"20 µM [falling, partial curve]"
20,CCn1c(=O)[nH]c2cc(Cl)c(Cl)cc21,"17.8 µM [falling, partial curve]"
21,CC1=C(/C=C/C(C)=C/C=C/C(C)=C/C(=O)Nc2ccc(O)cc2)C(C)(C)CCC1,"20 µM [rising, single point]"

# Same assay, conditions: Lamin A splicing dual RFP/GFP fluorescence reporter, ratio; measured here: RFP channel
row,SMILES,AC50
1,c1cnc(N2CCN(Cc3ccc4c(c3)OCO4)CC2)nc1,"25.1 µM [falling, single point]"
2,O=C(c1ccc(OCCN2CCCCC2)cc1)c1c(-c2ccc(O)cc2)sc2cc(O)ccc12,"12.6 µM [falling, partial curve]"
3,O=Nc1ccc2oc(=O)ccc2c1,"25.1 µM [falling, partial curve]"
4,NC(=NCc1ccc(Cl)c(Cl)c1)NC(=O)c1nc(Cl)c(N)nc1N,"12.6 µM [falling, partial curve]"
5,S=C(Nc1ccccc1)Nc1nccs1,"5.01 µM [falling, partial curve, poor fit]"
6,COC(=O)[C@@H]1[C@H]2C[C@H]3c4[nH]c5ccccc5c4CCN3C[C@@H]2CC[C@@H]1O,"3.98 µM [falling, single point]"
7,N=C(N)SCCc1cnc[nH]1,"25.1 µM [falling, single point]"
8,Clc1ccccc1C(c1ccccc1)(c1ccccc1)n1ccnc1,"14.1 µM [rising, partial curve]"
9,O=c1[nH]c2cc(Cl)c(Cl)cc2[nH]c1=O,"3.55 µM [rising, full curve, poor fit]"
10,CCCn1c(=O)c2[nH]c(C3CCCC3)nc2n(CCC)c1=O,"17.8 µM [falling, single point]"
11,CCCCCCCCCCCCC/C=C/[C@@H](O)[C@@H](N)CO,"25.1 µM [falling, single point]"
12,CN1CCN2c3ccccc3Cc3ccccc3C2C1 (stereo unspecified),"14.1 µM [falling, partial curve, poor fit]"
13,CCN(CC)C(=S)SSC(=S)N(CC)CC,"0.158 µM [falling, full curve]"
14,Nc1ncn([C@@H]2O[C@H](CO)[C@@H](O)[C@H]2O)c(=O)n1,"3.16 µM [falling, full curve]"
15,CC(C)NC[C@H](O)c1ccc(O)c(O)c1,"35.5 µM [falling, single point]"
16,CC#C[C@]1(O)CC[C@H]2C3CCC4=CC(=O)CCC4=C3[C@@H](c3ccc(N(C)C)cc3)C[C@@]21C (stereo partly specified),"20 µM [falling, partial curve, poor fit]"
17,CC(C)C[C@H](N)CSSC[C@@H](N)CC(C)C,"17.8 µM [falling, single point]"
18,CNC(=O)[C@H]1O[C@@H](n2cnc3c(N)ncnc32)[C@H](O)[C@H]1O,"20 µM [falling, partial curve]"
19,CCn1c(=O)[nH]c2cc(Cl)c(Cl)cc21,"0.794 µM [falling, partial curve]"
20,CC1=C(/C=C/C(C)=C/C=C/C(C)=C/C(=O)Nc2ccc(O)cc2)C(C)(C)CCC1,"20 µM [rising, single point]"
